Laboratory results published in paper doi:10.1101/2024.11.23.625001.
No constants are given. Whether binding was seen depends on the method and setting. Binding seen in cells or lysates may run through a third protein. Some binding calls cover weakened binding; strength is not graded here.

The chains behind the UniProt entries cited, without tags or fusion partners. Residues count along the entry.
UniProt O43914, residues 22-113: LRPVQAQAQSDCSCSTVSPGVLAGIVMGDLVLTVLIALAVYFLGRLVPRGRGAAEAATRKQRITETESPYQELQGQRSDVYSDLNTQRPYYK

T1: MS4A6A (human (endogenous in primary human macrophages)) (UniProt Q9H2W1)
T1 sequence: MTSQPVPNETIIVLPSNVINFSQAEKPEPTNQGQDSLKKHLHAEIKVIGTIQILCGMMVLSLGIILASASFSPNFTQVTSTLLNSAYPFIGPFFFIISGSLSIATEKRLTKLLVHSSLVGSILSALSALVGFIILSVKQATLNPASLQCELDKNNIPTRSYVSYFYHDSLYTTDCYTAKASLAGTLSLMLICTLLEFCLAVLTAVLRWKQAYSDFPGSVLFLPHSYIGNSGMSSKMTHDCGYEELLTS

B1: TREM2 (receptor, UniProt Q9NZC2 19-230)
chain: HNTTVFQGVAGQSLQVSCPYDSMKHWGRRKAWCRQLGEKGPCQRVVSTHNLWLLSFLRRWNGSTAITDDTLGGTLTITLRNLQPHDAGLYQCQSLHGSEADTLRKVLVEVLADPLDHRDAGDLWFPGESESFEDAHVEHSISRSLLEGEIPFPPTSILLLLACIFLIKILAASALWAAAWHGQKPGTHPPSELDCGHDPGYQLQTLPGLRDT

Molecular target: T1, MS4A6A (human (endogenous in primary human macrophages))
Experiment: co-IP

Molecule | binding
DAP12 (encoded by TYROBP) (from UniProt O43914 22-113) | binds
B1 | no binding
